Record: PubChem BioAssay AID1259254 (NCATS, 2017)
Here is an unselected part of about 59,000 deposited reagents. About 1,550 of them (2.6%) were called active. 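G2 share is only a proxy for re-replication; each gene was hit by three separate siRNAs, and active genes were retested.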 Entries without a mark were called inactive. Reagents against one gene are numbered here. Not all columns of the deposit are shown. Not stated in the record: the amount of reagent.

Test: 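Gene knock-downs that lead to re-replication, shown by excess G2 DNA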 (primary screen)
System: human HCT116 colorectal cancer cells
Knock-down reagent: single siRNA against human genes
Timing: 3 days
Measured: 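Imaged Hoechst DNA stain sorts each cell into a cycle phase by DNA amount; per plate, G2 fraction set to 0% for non-targeting and 100% for GMNN siRNA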
Direction: G2 robust z-score and G2 cells, % of GMNN control: higher = more G2 cells, more excess DNA replication
Call rule: 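Active siRNAs have a G2 robust z of 5 or more median absolute deviations over the median, which in these data means about 38% or higher of GMNN control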

PROX1 #1 | G2 robust z-score: 1.89; G2 cells, % of GMNN control: 16.3
PROX1 #2 | G2 robust z-score: -0.558; G2 cells, % of GMNN control: -0.956
PROX1 #3 | G2 robust z-score: 0.399; G2 cells, % of GMNN control: 5.78
FLOT2 #1 | G2 robust z-score: 0.431; G2 cells, % of GMNN control: 6
FLOT2 #2 | G2 robust z-score: 0.613; G2 cells, % of GMNN control: 7.28
FLOT2 #3 | G2 robust z-score: 2.44; G2 cells, % of GMNN control: 20.2
TUBGCP6 #1 | G2 robust z-score: 0.815; G2 cells, % of GMNN control: 8.7
TUBGCP6 #2 | G2 robust z-score: 2.74; G2 cells, % of GMNN control: 22.2
TUBGCP6 #3 | G2 robust z-score: 3.86; G2 cells, % of GMNN control: 30.1
BID #1 | G2 robust z-score: 1.33; G2 cells, % of GMNN control: 12.3
BID #2 | G2 robust z-score: 1.12; G2 cells, % of GMNN control: 10.9
BID #3 | G2 robust z-score: 0.057; G2 cells, % of GMNN control: 3.37
MRGPRF #1 | G2 robust z-score: 2.07; G2 cells, % of GMNN control: 17.5
MRGPRF #2 | G2 robust z-score: 3.38; G2 cells, % of GMNN control: 26.7
MRGPRF #3 | G2 robust z-score: 8.7 (active); G2 cells, % of GMNN control: 64.2
COL4A6 #1 | G2 robust z-score: -0.368; G2 cells, % of GMNN control: 0.376
COL4A6 #2 | G2 robust z-score: -0.259; G2 cells, % of GMNN control: 1.14
COL4A6 #3 | G2 robust z-score: -0.217; G2 cells, % of GMNN control: 1.44
USP41P #1 | G2 robust z-score: 2.14; G2 cells, % of GMNN control: 18
USP41P #2 | G2 robust z-score: 1.69; G2 cells, % of GMNN control: 14.9
USP41P #3 | G2 robust z-score: -0.929; G2 cells, % of GMNN control: -3.57
TMEM63B #1 | G2 robust z-score: 0.554; G2 cells, % of GMNN control: 6.86
TMEM63B #2 | G2 robust z-score: 0.0859; G2 cells, % of GMNN control: 3.57
TMEM63B #3 | G2 robust z-score: 0.593; G2 cells, % of GMNN control: 7.14
LOC440386 (retired record) #1 | G2 robust z-score: 2.45; G2 cells, % of GMNN control: 20.2
LOC440386 (retired record) #2 | G2 robust z-score: 0.102; G2 cells, % of GMNN control: 3.69
LOC440386 (retired record) #3 | G2 robust z-score: -0.966; G2 cells, % of GMNN control: -3.83
NKX2-5 #1 | G2 robust z-score: 6.92 (active); G2 cells, % of GMNN control: 51.7
NKX2-5 #2 | G2 robust z-score: 0.0538; G2 cells, % of GMNN control: 3.35
NKX2-5 #3 | G2 robust z-score: 0.503; G2 cells, % of GMNN control: 6.51
